{"sequences": {"note": "Amino acid sequences for entries named in this document (tags omitted).", "UniProt O00571": "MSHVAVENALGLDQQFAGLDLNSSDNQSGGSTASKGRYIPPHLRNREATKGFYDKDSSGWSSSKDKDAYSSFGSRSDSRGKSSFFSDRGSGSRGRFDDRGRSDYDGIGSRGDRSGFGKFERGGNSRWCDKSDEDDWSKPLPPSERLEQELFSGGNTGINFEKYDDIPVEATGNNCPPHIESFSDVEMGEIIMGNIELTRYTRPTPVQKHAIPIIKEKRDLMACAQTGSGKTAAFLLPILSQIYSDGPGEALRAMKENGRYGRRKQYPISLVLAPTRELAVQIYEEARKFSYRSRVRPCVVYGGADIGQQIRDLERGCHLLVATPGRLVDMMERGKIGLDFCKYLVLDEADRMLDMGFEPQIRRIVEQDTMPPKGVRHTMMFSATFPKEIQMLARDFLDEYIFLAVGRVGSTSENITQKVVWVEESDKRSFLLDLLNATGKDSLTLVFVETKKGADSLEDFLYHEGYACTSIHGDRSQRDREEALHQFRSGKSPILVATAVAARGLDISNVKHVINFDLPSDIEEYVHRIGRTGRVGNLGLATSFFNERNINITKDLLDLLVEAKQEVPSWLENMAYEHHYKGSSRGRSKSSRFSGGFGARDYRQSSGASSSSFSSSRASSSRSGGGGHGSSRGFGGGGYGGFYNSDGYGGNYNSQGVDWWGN"}, "source": "paper PMC5186766", "target": "GST.DDX3 fusion protein (UniProt O00571)", "assay": "pull-down; purified GST or GST fusion protein (15 μg) on 20 μl glutathione sepharose beads plus 10 μl of in vitro translated [35S]-labeled protein, overnight at 4°C, washed with 0.1 M PBS; SDS-PAGE and autoradiography; only the target purified", "note": "No constants are given. Whether binding was seen depends on the method and setting. In cells and extracts the contact can be indirect. Some results given as binding are weak or reduced against the parent protein; the word gives no strength.", "data": [{"binder": "human adenovirus (HAdV)-5 pVIII (protein, UniProt P24936 1-227, [35S] methionine labeled) MSKEIPTPYMWSYQPQMGLAAGAAQDYSTRINYMSAGPHMISRVNGIRAHRNRILLEQAAITTTPRNNLNPRSWPAALVYQESPAPTTVVLPRDAQAEVQMTNSGAQLAGGFRHRVRSPGQGITHLTIRGRGIQLNDESVSSSLGLRPDGTFQIGGAGRPSFTPRQAILTLQTSSSEPRSGGIGTLQFIEEFVPSVYFNPFSGPPGHYPDQFIPNFDAVKDSADGYD", "values": [{"measurement": "binding", "value": "binds"}]}]}
